Where a sequence shows no end group, the ends are not given.
Assay: peptide made by a vendor
Details: whole synthesis, HPLC

AEAEAKAKAEAEAKAK (N-terminal glycine linker with bbDTPA chelator; Targeted aggregate peptide)
purity (crude or final not stated): 90%
